The list shows a part of the results. Shown are side measurements of this screen, not its main read-out; they come without a call. The list favours compounds with an active or inconclusive main result. Potencies come from curve fits of mixed quality, noted in brackets.
Assay: qHTS Assay for Lipid Storage Modulators in Drosophila S3 Cells;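 on cell number change: cells counted by Cell Tracker Red CMTPX staining in the red channel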
Conditions: BODIPY lipid droplet fluorescence, 18-24 h; for cell number change: measured here: cell count max response, cells fed with added oleic acid
Outline: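 Drosophila S3 cells loaded with oleic acid (400 uM, as added) and compounds at several concentrations; lipid droplets imaged by 488-nm laser-scanning cytometry, 500–530 nm intensity and object ratio to cell channel. Percent activity normalized to 20 uM Triacsin C.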

[1] = measured here: lipid fluorescence (Fed channel) AC50, cells fed with added oleic acid
[2] = measured here: cell number channel AC50, cells fed with added oleic acid

| SMILES | cell number change [%] | AC50 [1] | AC50 [2] |
| --- | --- | --- | --- |
| Cc1ccc(S(=O)(=O)N2CCN(Cc3nc4sc5c(c4c(=O)[nH]3)CCCC5)CC2)cc1 | -3.8 | 0.82 µM [falling, full curve] |  |
| Cc1ccc(-c2nc3ccc(Cl)cc3n2OC(C)C(=O)O)cc1 (stereo not given) | 12.4 |  |  |
| N=c1c(S(=O)(=O)c2ccccc2)cc2c(=O)n3ccccc3nc2n1Cc1ccco1 | -25.2 | 5.17 µM [rising, single point] |  |
| C/C(=N\NC(=O)c1cccc(F)c1)c1ccc(NC(=O)Cc2ccccc2)cc1 | 21.1 |  |  |
| CCOC(=O)c1sc(NC(=O)CN2CCN(c3ccc(OC)cc3)CC2)nc1C | -26.4 | 29.1 µM [falling, single point] | 0.184 µM [falling, full curve, poor fit] |
| O=C(Cc1nnc(NC(=O)c2cccc([N+](=O)[O-])c2)s1)NCc1ccccc1 | 14.1 | 29.1 µM [rising, single point] |  |
| Cc1ccc(N(CC(O)CN2CCOCC2)S(=O)(=O)c2ccc3ccccc3c2)cc1 (stereo not given) | -18.1 |  | 0.092 µM [falling, full curve, poor fit] |
| CC(=O)c1cc(CN2CCC(C(=O)Nc3cccc(-c4cscn4)c3)CC2)cs1 | 2.79 |  |  |
| O=C1CCCC(=O)N1c1ccc(N2CCOCC2)c([N+](=O)[O-])c1 | 8.35 | 4.11 µM [falling, single point] | 6.51 µM [falling, single point] |
| Cc1cc(C)c(CN2CCN(C(=O)Cn3ccc(NC(=O)OCc4ccccc4)nc3=O)CC2)c(C)c1 | -8.6 |  | 1.16 µM [falling, single point] |
| Cc1cc(Br)c(NC(=O)CN(C)CCOc2ccccc2)c(Br)c1 | 5.14 | 0.146 µM [falling, single point] |  |
| CCc1c(C)sc(NC(=O)C2CC2c2ccccc2)c1C(N)=O (stereo not given) |  | 2.06 µM [rising, partial curve] |  |
| Cc1ccccc1-c1cc(C(=O)O)n(CC2CC(c3cccnc3)=NO2)n1 (stereo not given) | -6.44 | 25.9 µM [rising, partial curve, poor fit] |  |
| COc1cccc(-c2nnc(SCC(=O)NCc3ccc4c(c3)OCO4)n2Cc2ccco2)c1 | 115 | 2.91 µM [rising, partial curve] | 14.6 µM [rising, partial curve] |
| O=S(=O)(Cc1ccccc1)N1CCc2ccccc21 | -11.2 | 4.11 µM [falling, single point] |  |
| Nc1cc(C(=O)OCC(=O)N2CCC(Cc3ccccc3)CC2)ccc1Cl | -3.11 |  |  |
| COc1cc2cc(C)c3nnc(SCC(N)=O)n3c2cc1OC | -15 | 9.2 µM [rising, partial curve] |  |
| C=CCn1cc(C(=O)NCCCN(CC)CC)c(=O)c2cc(S(=O)(=O)N3CCC(C)CC3)ccc21 | 13 | 29.1 µM [rising, single point] |  |
| O=C(COC(=O)c1ccccc1NC(=O)c1ccco1)Nc1ccc2c(c1)OC(F)(F)O2 | -2.01 |  |  |
| COc1ccccc1N(C)S(=O)(=O)c1ccc(C(=O)OCC(=O)N(C(C)C)C(C)C)cc1 | 143 |  | 16.4 µM [rising, partial curve] |
| O=C(c1ccc([N+](=O)[O-])cc1)N1CCOC12CCN(c1ncc(C(F)(F)F)cc1Cl)CC2 | -54.2 | 0.651 µM [rising, single point] | 2.91 µM [falling, partial curve] |
| O=C(NC1CCCC1)C1CCN(C(=O)c2cccc(Cl)c2)CC1 | 10.5 |  |  |
| O=C(NCC1CCCO1)C(c1ccc(F)cc1)N(CC1CCCO1)C(=O)c1ccc(-c2ccccc2)[nH]1 (stereo not given) | -8.15 | 32.6 µM [falling, single point] |  |
| COc1ccc2nc(SCC(N)=O)cc(C)c2c1 | 43.8 | 0.731 µM [rising, partial curve, poor fit] | 25.9 µM [rising, single point] |
| CC1CC(C)CN(C(=O)CSC2=Nc3ccccc3C3=NC(Cc4c[nH]c5ccccc45)C(=O)N23)C1 (stereo not given) |  | 29.1 µM [falling, single point] | 1.46 µM [rising, partial curve] |
| CCCC(=O)Nc1ccc(C(=O)N/N=C/c2ccc[nH]2)cc1 | 76.8 |  | 4.11 µM [rising, full curve, poor fit] |
| CC(=O)NC(C)C(=O)OCC(=O)c1ccc(-c2ccccc2)cc1 (stereo not given) | -29 | 29.1 µM [falling, partial curve, poor fit] |  |
| Cc1cc(C(=O)Nc2cccc(C)c2C)c2ccccc2n1 | 31.4 |  |  |
| Cn1nc2c3cc(F)ccc3n(Cc3ccc(F)cc3)cc-2c1=O | -13.5 |  | 0.103 µM [falling, full curve] |

Single records, from the list above.
`COc1cc2cc(C)c3nnc(SCC(N)=O)n3c2cc1OC` in the list: cell number change [%]: -15; AC50 [1]: 9.2 µM [rising, partial curve]
`N=c1c(S(=O)(=O)c2ccccc2)cc2c(=O)n3ccccc3nc2n1Cc1ccco1` in the list: cell number change [%]: -25.2; AC50 [1]: 5.17 µM [rising, single point]
